# Measured values reported in PubChem BioAssay AID651640 (Broad Institute, 2012).
# Values joined by “and” are separate entries in the source; they are usually repeats but may differ in a detail not shown here. Identical values can stand only once. About 6,000 (1.7%) of roughly 350,000 compounds were called active. The shares of active, inactive and inconclusive entries below differ from those in the screen. No stated cut-off is given here; in the data, active means CPE inhibition above about 20% (passing the limit was not always enough); inconclusive means no clear call, values can overlap the other calls; tested in BHK-21 cells. A structure can be active in one record and inactive in another.
# Assay: protection of cells from dengue 2 killing – plate reader, single concentration, primary screen (AID 651640);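 further: 0% = median of neutral control wells and 100% = median of positive control wells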
# Conditions: DENV2-infected cells, cytopathic effect rescue, at 9.99 µM, stronger effect = higher value
row,SMILES,CPE inhibition
1,CCN1C(=O)CS/C1=N\S(=O)(=O)c1ccccc1,inactive: 8.68%
2,O=C(C1CC1)N1CC(=O)N2[C@H](CO)[C@@H](c3ccc(Br)cc3)[C@@H]2C1,inconclusive: 31.9%
3,CCc1ccc([C@@H]2CC=C(C(=O)O)CN2S(=O)(=O)c2ccc(C)cc2)cc1,inconclusive: 58.5%
4,COc1ccc(C(=O)/C=C(\C)Nc2ccc(NC(C)=O)cc2)cc1,inconclusive: 30.4%
5,CCCCn1c(=O)[nH]c(=O)c2c1nc(-c1cc(Br)ccc1OC)n2C,inconclusive: 54.7%
6,CCCNC(=O)N1CC2(C1)[C@H](c1ccccc1)[C@H](CO)N2C(=O)CC1CC1,active: 23%
7,COc1ccc(CN(C)C[C@H]2OCCCC[C@@H](C)Oc3ccc(NS(=O)(=O)c4ccc(Cl)cc4)cc3C(=O)N([C@H](C)CO)C[C@H]2C)cc1,inconclusive: 63.7%
8,COc1ccc(CN(C)C[C@@H]2OCCCC[C@H](C)Oc3ccc(NC(=O)Cc4ccccc4)cc3C(=O)N([C@H](C)CO)C[C@@H]2C)cc1,active: 27.5%
9,O=C(c1cccnc1)N1CC2(C1)[C@@H](c1ccccc1)[C@@H](CO)N2C(=O)CC1CC1,active: 30.1%
10,O=C1COc2ccc(C(=O)COC(=O)Cc3ccccc3F)cc2N1,inconclusive: 25.2%
11,CCN1CCN(CC(=O)Nc2c(OC)cccc2OC)CC1,inconclusive: 34.2%
12,CCO[C@H]1OC(C(=O)N2CCOCC2)=C[C@@H](c2cn(C(C)=O)c3ccccc23)[C@@H]1CCCO,active: 27.5%
13,C[C@@H]1CN([C@H](C)CO)S(=O)(=O)c2ccc(C#C[C@@H](C)O)cc2O[C@H]1CN(C)C(=O)Cc1ccccn1,inconclusive: 48.3%
14,C[C@@H]1CCCCO[C@@H](CN(C)Cc2ccncc2)[C@H](C)CN([C@H](C)CO)C(=O)c2cc(NC(=O)Nc3ccccc3)ccc2O1,inactive: 0.146%
15,Cc1ccccc1-c1cnc2c(c1)C(=O)N([C@@H](C)CO)C[C@@H](C)[C@H](CN(C)C(=O)c1ccncc1)O2,inactive: -9.17%
16,COc1ccc(-c2noc(-c3csc([C@@H]4C[C@H](O)[C@@H](CO)O4)n3)n2)cc1OC,inconclusive: 21.2%
17,CCN(C(=O)COc1ccc2ccc(=O)oc2c1)C1CCCCC1,inconclusive: 41.2%
18,CCC(=O)N1C[C@@H]2[C@H](c3ccccc31)[C@@H](CO)N2C(=O)CC1CC1,inconclusive: 20.4%
19,CC1CCCN(C(C(=O)NC2CCCCC2)c2cc3c(cc2[N+](=O)[O-])OCO3)C1 (configuration not stated),inconclusive: 32.3%
20,O=C1NC(Cc2ccc(O)cc2)c2nc3cc(Cl)ccc3c(=O)n2-c2cc(Cl)ccc21 (configuration not stated),inconclusive: 42.8%
21,CC(C)NC(=O)N(C)C[C@@H]1OCCCC[C@H](C)Oc2ccc(NC(=O)CCC(F)(F)F)cc2C(=O)N([C@@H](C)CO)C[C@@H]1C,inactive: 5.55%
22,Cc1ccc(-c2csc3ncnc(NS(=O)(=O)c4ccc(Cl)cc4)c23)cc1,inactive: 10.9%
23,CN(C[C@@H]1[C@@H](c2ccccc2)[C@H](CO)N1C(=O)C1CC1)C(=O)c1ccccn1,active: 54%
24,CCN(CC)C(=O)c1[nH]cnc1C(=O)Nc1cccc(C)c1,inactive: -4.01%

row,SMILES,CPE inhibition
1,O=S(=O)(c1ccccc1)N1CCN(CCc2ccccc2)CC1,inactive: -0.954%
2,CC1(c2nnc(Cc3ccccc3)o2)CC(c2ccc(Cl)cc2)=NO1 (configuration not stated),inconclusive: 67.1%
3,CN1OC[C@@H]2CN(C(=O)NC3CCCCC3)[C@H](c3ccc(N4CCCCC4)cc3)C[C@@H]21,active: 22.3%
4,COC(=O)C1=C(C)N(Cc2cccc(C(F)(F)F)c2)C(=NCC2CC2)NC1c1ccc(F)cc1 (configuration not stated),active: 61.2%
5,CCOC(=O)C1=C(C)N(CCCC(=O)O)C(=O)NC1c1ccc(Cl)cc1 (configuration not stated),inconclusive: 62%
6,Cc1ccc(S(=O)(=O)Nc2ccc3c(c2)C(=O)N([C@H](C)CO)C[C@H](C)[C@@H](CN(C)Cc2ccc(C(=O)Nc4ccccc4N)cc2)O3)cc1,active: 20.2%
7,CC(=O)NC[C@@H]1[C@@H](c2ccc(C3=CCCC3)cc2)[C@H](CO)N1Cc1cccnc1,inactive: 7.72%
8,COc1ccccc1CCNC(=O)Cn1c(=O)oc2ccccc21,inconclusive: 43.8%
9,C[C@]12c3[nH]c4ccc(Cl)cc4c3CCN1C(=O)[C@@H](CC(=O)NCCC1=CCCCC1)C[C@@H]2C(=O)N1CCCCC1,inactive: 0.475%
10,O=c1[nH]cc(F)c(=O)[nH]1,inconclusive: 22.4%
11,O=C(Cc1c[nH]c2ccccc12)N1CCN(S(=O)(=O)c2cccc(Cl)c2Cl)CC1,inconclusive: 29.5%
12,C[C@@H]1CCCCO[C@H](CN(C)C)[C@H](C)CN([C@@H](C)CO)C(=O)c2cc(NC(=O)CCCN(C)C)ccc2O1,inactive: 10.8%
13,COc1ccc(C#Cc2cnc3c(c2)C(=O)N([C@@H](C)CO)C[C@@H](C)[C@@H](CN(C)C(C)=O)O3)cc1,inactive: -0.58%
14,C[C@@H]1CN([C@H](C)CO)S(=O)(=O)c2ccc(C#CC(C)(C)O)cc2O[C@@H]1CN(C)C(=O)C1CCCCC1,active: 20.4%
15,CN1C(=O)Cc2cc(S(=O)(=O)N3CCN(c4cccc(C(F)(F)F)c4)CC3)ccc21,inconclusive: 27.6%
16,CN(C)CCNc1ncnc2c1ncn2[C@H]1CN(Cc2cccs2)C[C@@H](CO)O1,inconclusive: 39.9%
17,Cc1nn(Cc2cccc(C(=O)O)c2)c(C)c1[N+](=O)[O-],inconclusive: 23.6%
18,O=C(COc1cc2oc(=O)c3c(c2cc1Cl)CCC3)Nc1cccnc1,inconclusive: 22.8%
19,COc1ccc(Cc2nnc(NC(=O)C3CCN(C(=O)c4ccco4)CC3)s2)cc1,inconclusive: 22.8%
20,CN(C)C(=O)C[C@@H]1C[C@@H]2c3cc(NS(C)(=O)=O)ccc3O[C@@H]2[C@@H](CO)O1,inconclusive: 24.8%
21,Brc1ccc(-c2csc(Nc3nc(-c4ccc(Br)cc4)cs3)n2)cc1,inconclusive: 23.3%
22,O=C(N/N=C/c1cccc(Cl)c1)C1CCCC1,inconclusive: 23.4%
23,COC(=O)c1ccc(C(=O)OC)c(NC(=O)CN(C)Cc2cccc(Cl)c2Cl)c1,inconclusive: 24.5%
24,C=CCn1cnc2c(sc3nc(C)cc(C)c32)c1=O,inconclusive: 20.5%

row,SMILES,CPE inhibition
1,COc1ccccc1NC(=O)N1CCN(c2ccc3nncn3n2)CC1,inconclusive: 23.7%
2,CCCN(C)C[C@H]1OCCCC[C@@H](C)Oc2ccc(NS(=O)(=O)c3ccccc3)cc2C(=O)N([C@@H](C)CO)C[C@H]1C,inactive: 13.8%
3,C[C@@H]1CCCCO[C@@H](CN(C)Cc2ccc3c(c2)OCO3)[C@H](C)CN([C@@H](C)CO)C(=O)c2cc(NS(=O)(=O)c3cccs3)ccc2O1,inactive: 5.32% and active: 112%
4,C[C@H]1CN([C@@H](C)CO)C(=O)c2cc(NC(=O)Cc3ccccc3)ccc2O[C@H]1CN(C)Cc1ccc(C(=O)O)cc1,inactive: 5.15%
5,C[C@H](O)C#Cc1ccc([C@H]2[C@@H](CO)N3CCCCN(CC4CC4)C[C@H]23)cc1,active: 22.5%
6,C[C@@H]1CN([C@H](C)CO)C(=O)Cc2cc(NS(=O)(=O)c3cccs3)ccc2O[C@H]1CN(C)Cc1ccncc1,inactive: 2.71%
7,COc1cccc(C#Cc2cnc3c(c2)C(=O)N([C@H](C)CO)C[C@@H](C)[C@@H](CN(C)C(=O)C2CCC2)O3)c1,inactive: -2.93%
8,C[C@H](CO)N1C[C@H](C)[C@@H](CN(C)S(=O)(=O)c2cn(C)cn2)Oc2ccc(NS(=O)(=O)c3ccc(Cl)cc3)cc2CC1=O,inconclusive: 34.1%
9,CN(C)CCCN(C(=O)c1ccco1)c1nc2cc3c(cc2s1)OCO3,inconclusive: 36.1%
10,Cc1csc(SC(C)c2nc3scc(-c4ccccc4)c3c(=O)[nH]2)n1 (configuration not stated),inconclusive: 36.4%
11,COc1ccc(CC(=O)N2CCN(c3ccc(F)cc3)CC2)cc1,inconclusive: 34.7%
12,CCOc1ccc(CNc2ccc(N3CCN(Cc4ccccc4)CC3)cc2)cc1,inconclusive: 27.1%
13,C[C@H](CO)N1C[C@H](C)[C@H](CN(C)S(=O)(=O)c2ccc(-n3cccn3)cc2)OCc2cnnn2CCCC1=O,inconclusive: 39.3%
14,CCOC(=O)CNC(=O)CSc1ccc(-c2nc3ccccc3[nH]2)cn1,inconclusive: 27.9%
15,COc1ccc(C(C)=O)cc1Cn1c(C)c(C(=O)NCc2cccc(C)c2)sc1=O,inconclusive: 24.4%
16,COc1ccccc1NC(=O)C1=C(C)Nc2nnnn2C1c1cccc(C)c1 (configuration not stated),inconclusive: 20.7%
17,CCn1cc(CN2CCC(n3nccc3NC(=O)CCCc3ccccc3)CC2)cn1,inconclusive: 32.7%
18,CC(C)NC(=O)Nc1ccc2c(c1)CC(=O)N([C@H](C)CO)C[C@H](C)[C@@H](CN(C)Cc1ccc(C(=O)O)cc1)O2,inconclusive: 41.6%
19,O=C(CN1CCCC1)N/N=C/c1c(O)ccc2ccccc12,inactive: 0.831%
20,CCCC(=O)Nc1ccc2c(c1)C(=O)N(C)C[C@H](OC)[C@@H](C)CN(C(C)=O)[C@H](C)CO2,active: 68%
21,CCC1CCCCN1CCCNC(=O)c1c(O)nc2ccccn2c1=O (configuration not stated),inactive: -2.06%
22,N#C[C@@H]1[C@H](c2ccc(C3=CCCCC3)cc2)[C@H](CO)N1C(=O)C1CCOCC1,active: 29.7%
23,O=C(Nc1cccc(NC(=O)c2cccc([N+](=O)[O-])c2)n1)c1cccc([N+](=O)[O-])c1,inconclusive: 29.9%
24,CSc1ccc(CN2CCCC(N3CCN(c4ccccc4)CC3)C2)cc1 (configuration not stated),inconclusive: 22%
